Reference: patent US20250011809A1, “VIRAL VECTOR PRODUCTION” (Cell Therapy Catapult Limited, priority 2021, published 2025)
Values joined by “and” are separate entries in the source; they are usually repeats but may differ in a detail not shown here. Equal entries are not always repeated. Not every detail of the peptide structures is certain; ends, links or a residue may be inferred. Ends that are not written are not given here.

Tests used:
Assay type in all cases: cell-based, human
HEK293T cells [1] = experiment: AAV2 viral genome titre by qPCR, adherent culture (Example 2); conditions: AAV2, 48 hrs post transfection, cells and medium, replicate wells n = 1-3
HEK293-F cells [2] = experiment: AAV2 genome titre by qPCR, suspension culture (Example 6); conditions: 72 hr post transfection
HEK293T cells [3] = experiment: GFP expression imaging of producer cells after AAV2 plasmid transfection (Example 2); conditions: 24 hrs post transfection, trends consistent at 48 hrs; conditions optimised for PEI
HEK293T/17 cells [4] = experiment: AAV8 viral genome titre by qPCR, adherent end-point culture (Example 3)
HEK293-F cells [5] = experiment: LV genome titre by RT-ddPCR, suspension culture (Example 6); conditions: 72 hr post transfection
HEK293-F cells [6] = experiment: AAV1 genome titre by qPCR, suspension culture (Example 6); conditions: 72 hr post transfection
HEK293T/17 cells [7] = experiment: AAV8 capsid titre by ELISA and empty:full ratio, continuous harvest of media (Example 4); conditions: AAV8, daily media harvest
HEK293T/17 cells [8] = experiment: AAV8 viral genome titre by qPCR, continuous harvest of media (Example 4); conditions: for VG/mL: AAV8, daily media harvest
HEK293T/17 cells [9] = experiment: AAV8 capsid titre by ELISA and empty:full ratio, adherent end-point culture (Example 3)
HEK293T cells [10] = experiment: AAV2 total capsid titre by ELISA and % full capsids, adherent culture (Example 2); conditions: for percentage of full capsids: AAV2, comparison in text

## WEARLARALARALARHLARALARALRACEA [RALA]
HEK293T cells [1]
  Viral genome titres as measured by qPCR: Titre: lower and 2.74E+09 vg/mL and 3.53E+09 vg/mL and 7.10E+09 vg/mL
HEK293T cells [1]; listed as RALA OptiMEM
  Viral genome titres as measured by qPCR: Titre: 2.53E+09 vg/mL and 1.03E+09 vg/mL and 8.63E+08 vg/mL
HEK293-F cells [2]
  Vg/mL: 5.82E+08 Vg/mL and 5.19E+08 Vg/mL
HEK293T cells [3]
  proportion of transfected cells (GFP expression): higher proportion of transfected cells than the RALA OptiMEM condition
HEK293T/17 cells [4]; AAV8, Day 2 (48 hrs post transfection), media and lysate
  VG/mL: 3.31e8 ± VG/mL
HEK293T/17 cells [4]; AAV8, Day 3 (72 hrs post transfection)
  VG/mL: 1.13e9 ± VG/mL
HEK293T/17 cells [4]; AAV8, Day 5 (120 hrs post transfection)
  VG/mL: 2.02e9 ± VG/mL
HEK293-F cells [5]
  Vg/mL: 8.87E+07 Vg/mL and 6.73E+07 Vg/mL
HEK293-F cells [6]
  Vg/mL: 2.19E+08 Vg/mL and 2.39E+08 Vg/mL
HEK293T/17 cells [7]; Day 1
  TP/mL: 1.03e7 ± TP/mL
HEK293T/17 cells [7]; Day 2
  TP/mL: 7.36e9 ± TP/mL
HEK293T/17 cells [7]; Day 4
  TP/mL: 4.57e9 ± TP/mL
HEK293T/17 cells [7]; Day 5
  TP/mL: 2.05e9 ± TP/mL
HEK293T/17 cells [7]; Day 6
  TP/mL: 1.38e9 ± TP/mL
HEK293T/17 cells [7]; Day 7
  TP/mL: 1.31e9 ± TP/mL
HEK293T/17 cells [8]; AAV8, cumulative over 7 days, compared to PEI-Pro
  production of viral genomes and total capsids, cumulative harvesting: marked increase
HEK293T/17 cells [8]; Day 1
  VG/mL: 6.61e5 ± VG/mL
HEK293T/17 cells [8]; Day 2
  VG/mL: 2.92e8 ± VG/mL
HEK293T/17 cells [8]; Day 3
  VG/mL: 7.39e8 ± VG/mL
HEK293T/17 cells [8]; Day 4
  VG/mL: 1.53e9 ± VG/mL
HEK293T/17 cells [8]; Day 5
  VG/mL: 1.09e9 ± VG/mL
HEK293T/17 cells [8]; Day 6
  VG/mL: 8.68e8 ± VG/mL
HEK293T/17 cells [8]; Day 7
  VG/mL: 7.06e8 ± VG/mL
HEK293T/17 cells [9]; AAV8, Day 2
  TP/mL: 9e9 ± TP/mL
HEK293T/17 cells [9]; AAV8, Day 3
  TP/mL: 1.3e10 ± TP/mL
HEK293T/17 cells [9]; AAV8, Day 5
  TP/mL: 1.78e10 ± TP/mL
HEK293T/17 cells [9]; AAV8, by day 6
  more full AAV particles produced than PEI-Pro: 57%
HEK293T cells [10]; AAV2, ELISA Run 1
  TP/mL: 2.19e10 TP/mL and 3.83e10 TP/mL and 2.28e10 TP/mL
HEK293T cells [10]; AAV2, ELISA Run 1, listed as RALA OptiMEM
  TP/mL: 7.67e9 TP/mL and 6.37e9 TP/mL and 4.34e9 TP/mL
HEK293T cells [10]; AAV2, ELISA Run 2
  TP/mL: 4.89e10 TP/mL and 2.58e10 TP/mL and 2.47e10 TP/mL
HEK293T cells [10]; AAV2, ELISA Run 2, listed as RALA OptiMEM
  TP/mL: 5.91e9 TP/mL and 4.39e9 TP/mL
HEK293T cells [10]; AAV2, Run 1
  Full capsids (%): 16% and 19% and 12%
HEK293T cells [10]; AAV2, Run 2, * omitted as samples off standard curve
  Full capsids (%): 14.26% and 13.67% and 11.1%
HEK293T cells [10]; AAV2, compared with the optimised PEI conditions
  total particles per mL (ELISA): lower titres
HEK293T cells [10]
  percentage of full capsids: much higher
HEK293T cells [10]; listed as RALA OptiMEM
  percentage of full capsids: increased
